No constants are given. Whether binding was seen depends on the method and setting. Binding seen in cells or lysates may run through a third protein. Some results given as binding are weak or reduced against the parent protein; the word gives no strength. For part of these data: Where a sequence is shown, tags or fusion partners need not be part of it.
T1: untagged rat APOBEC1 (wild type) (rat) (UniProt P38483)
T1 sequence: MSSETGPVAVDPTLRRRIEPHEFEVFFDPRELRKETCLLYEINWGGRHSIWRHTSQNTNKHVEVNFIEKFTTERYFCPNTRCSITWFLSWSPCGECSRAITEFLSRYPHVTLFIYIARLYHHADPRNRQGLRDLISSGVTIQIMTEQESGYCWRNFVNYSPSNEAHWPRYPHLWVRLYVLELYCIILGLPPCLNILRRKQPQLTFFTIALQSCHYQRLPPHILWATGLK

T2: FLAG-tagged APOBEC1 (wild type) (rat) (UniProt P38483)
T2 sequence: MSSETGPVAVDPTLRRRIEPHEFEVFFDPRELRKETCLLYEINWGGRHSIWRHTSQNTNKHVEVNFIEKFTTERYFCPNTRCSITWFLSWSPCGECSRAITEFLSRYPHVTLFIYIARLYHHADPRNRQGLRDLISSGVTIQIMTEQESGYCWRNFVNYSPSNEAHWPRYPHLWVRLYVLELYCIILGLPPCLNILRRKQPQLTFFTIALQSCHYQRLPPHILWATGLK

T3: FLAG-tagged A1CF (APOBEC1 Complementation Factor) (human) (UniProt Q9NQ94)
T3 sequence: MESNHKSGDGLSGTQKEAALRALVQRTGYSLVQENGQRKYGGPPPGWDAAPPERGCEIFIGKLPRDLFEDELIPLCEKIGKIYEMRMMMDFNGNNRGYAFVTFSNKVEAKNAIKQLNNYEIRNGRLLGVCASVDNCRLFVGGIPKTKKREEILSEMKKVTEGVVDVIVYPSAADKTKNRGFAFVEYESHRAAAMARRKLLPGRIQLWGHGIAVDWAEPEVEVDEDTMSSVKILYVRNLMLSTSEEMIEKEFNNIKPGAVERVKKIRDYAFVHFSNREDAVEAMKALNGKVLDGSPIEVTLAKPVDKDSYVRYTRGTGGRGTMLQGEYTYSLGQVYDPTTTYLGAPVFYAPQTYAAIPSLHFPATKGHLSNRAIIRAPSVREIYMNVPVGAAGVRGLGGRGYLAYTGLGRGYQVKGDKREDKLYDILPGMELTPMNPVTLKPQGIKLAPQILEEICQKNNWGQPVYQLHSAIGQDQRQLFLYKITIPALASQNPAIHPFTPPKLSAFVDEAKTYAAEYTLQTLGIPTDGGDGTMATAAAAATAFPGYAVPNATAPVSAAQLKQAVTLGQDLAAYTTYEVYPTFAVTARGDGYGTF


Experiments:
[1] = target: T1, untagged rat APOBEC1 (wild type) (rat); assay: cross-linking
[2] = target: T2, FLAG-tagged APOBEC1 (wild type) (rat); assay: co-IP
[3] = target: T3, FLAG-tagged A1CF (APOBEC1 Complementation Factor) (human); assay: co-IP
[4] = target: rat APOBEC1 G227A mutant (untagged) (rat) (UniProt P38483); assay: cross-linking
[5] = target: rat APOBEC1 L173Q mutant (rat) (UniProt P38483); assay: cross-linking

Row | Binder | binding [3] | other results
1 | rat APOBEC1 L173A/G227A double mutant (untagged) (enzyme, UniProt P38483 1-229) MSSETGPVAVDPTLRRRIEPHEFEVFFDPRELRKETCLLYEINWGGRHSIWRHTSQNTNKHVEVNFIEKFTTERYFCPNTRCSITWFLSWSPCGECSRAITEFLSRYPHVTLFIYIARLYHHADPRNRQGLRDLISSGVTIQIMTEQESGYCWRNFVNYSPSNEAHWPRYPHAWVRLYVLELYCIILGLPPCLNILRRKQPQLTFFTIALQSCHYQRLPPHILWATALK | binds | binding [1]: binds; binding [2]: binds
2 | rat APOBEC1 G227A mutant (untagged) (enzyme, UniProt P38483 1-229) MSSETGPVAVDPTLRRRIEPHEFEVFFDPRELRKETCLLYEINWGGRHSIWRHTSQNTNKHVEVNFIEKFTTERYFCPNTRCSITWFLSWSPCGECSRAITEFLSRYPHVTLFIYIARLYHHADPRNRQGLRDLISSGVTIQIMTEQESGYCWRNFVNYSPSNEAHWPRYPHLWVRLYVLELYCIILGLPPCLNILRRKQPQLTFFTIALQSCHYQRLPPHILWATALK | binds | binding [4]: binds
3 | rat APOBEC1 L173A mutant (untagged) (enzyme, UniProt P38483 1-229) MSSETGPVAVDPTLRRRIEPHEFEVFFDPRELRKETCLLYEINWGGRHSIWRHTSQNTNKHVEVNFIEKFTTERYFCPNTRCSITWFLSWSPCGECSRAITEFLSRYPHVTLFIYIARLYHHADPRNRQGLRDLISSGVTIQIMTEQESGYCWRNFVNYSPSNEAHWPRYPHAWVRLYVLELYCIILGLPPCLNILRRKQPQLTFFTIALQSCHYQRLPPHILWATGLK | binds | –
4 | rat APOBEC1 L173Q mutant (enzyme, UniProt P38483 1-229) MSSETGPVAVDPTLRRRIEPHEFEVFFDPRELRKETCLLYEINWGGRHSIWRHTSQNTNKHVEVNFIEKFTTERYFCPNTRCSITWFLSWSPCGECSRAITEFLSRYPHVTLFIYIARLYHHADPRNRQGLRDLISSGVTIQIMTEQESGYCWRNFVNYSPSNEAHWPRYPHQWVRLYVLELYCIILGLPPCLNILRRKQPQLTFFTIALQSCHYQRLPPHILWATGLK | – | binding [5]: binds
5 | untagged rat APOBEC1 (wild type) (enzyme, UniProt P38483 1-229) MSSETGPVAVDPTLRRRIEPHEFEVFFDPRELRKETCLLYEINWGGRHSIWRHTSQNTNKHVEVNFIEKFTTERYFCPNTRCSITWFLSWSPCGECSRAITEFLSRYPHVTLFIYIARLYHHADPRNRQGLRDLISSGVTIQIMTEQESGYCWRNFVNYSPSNEAHWPRYPHLWVRLYVLELYCIILGLPPCLNILRRKQPQLTFFTIALQSCHYQRLPPHILWATGLK | binds | –
6 | EGFP-APOBEC1 chimera (enzyme, UniProt P38483 1-229) MSSETGPVAVDPTLRRRIEPHEFEVFFDPRELRKETCLLYEINWGGRHSIWRHTSQNTNKHVEVNFIEKFTTERYFCPNTRCSITWFLSWSPCGECSRAITEFLSRYPHVTLFIYIARLYHHADPRNRQGLRDLISSGVTIQIMTEQESGYCWRNFVNYSPSNEAHWPRYPHLWVRLYVLELYCIILGLPPCLNILRRKQPQLTFFTIALQSCHYQRLPPHILWATGLK | binds | –

Reference: doi:10.1101/410803
